PubChem BioAssay AID1259308 | NCATS – 2017

- Aim: 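Candidate targets for better recombinant protein yield in mammalian cells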 (primary screen)
- System: human HEK293 embryonic kidney cells stably expressing firefly luciferase (HEK-CMV-Luc2-Hygro)
- Reagent: single siRNA against human genes, 0.8 pmol siRNA per well
- Time to read-out: 72 h
- Measurement: 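Luciferase light (ONE-Glo) measured on one replicate plate set and viability (CellTiter-Glo) on the other, scaled to a negative control siRNA, with robust z-scores and luciferase per cell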
- Direction: total luciferase, z-score: higher = more reporter protein produced
- Rule for the call: 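An siRNA counts as active if its total luciferase robust z-score exceeds 3; genes with two or more such siRNAs out of three were retested with fresh siRNAs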
- Calls: active = raised luciferase; inactive = no rise
Shown is a random part of about 59,000 deposited reagents. About 1,510 of them (2.6%) count as active. 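Calls use total luciferase alone and ignore viability, so some active siRNAs may act by altering cell number.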 Reagents against one gene are numbered here. Not all columns of the deposit are shown.

Silencing of HCRTR2 (hypocretin receptor 2) #1 gave: total luciferase, z-score 0.488; inactive.
Silencing of HCRTR2 (hypocretin receptor 2) #2 gave: total luciferase, z-score -0.461; inactive.
With knock-down of HCRTR2 (hypocretin receptor 2) #3 the results were total luciferase, z-score -0.243; inactive.
Silencing of LINC02912 (long independently transcribed non-coding RNA 2912) #1 gave: total luciferase, z-score 0.454; inactive.
Knock-down of LINC02912 (long independently transcribed non-coding RNA 2912) #2 came out at: total luciferase, z-score 0.11; inactive.
After knock-down of LINC02912 (long independently transcribed non-coding RNA 2912) #3 the results were total luciferase, z-score -0.489; inactive.
CEP76 (centrosomal protein 76) #1 gave total luciferase, z-score -0.53; inactive.
Knock-down of CEP76 (centrosomal protein 76) #2 resulted in: total luciferase, z-score -0.3; inactive.
With knock-down of CEP76 (centrosomal protein 76) #3 the results were total luciferase, z-score 0.758; inactive.
Depletion of ATP2B1 (ATPase plasma membrane Ca2+ transporting 1) #1 resulted in: total luciferase, z-score 1.38; inactive.
Depletion of ATP2B1 (ATPase plasma membrane Ca2+ transporting 1) #2 gave: total luciferase, z-score 0.438; inactive.
For ATP2B1 (ATPase plasma membrane Ca2+ transporting 1) #3, the values are total luciferase, z-score 0.341; inactive.
With knock-down of BPNT2 (3'(2'), 5'-bisphosphate nucleotidase 2) #1, the screen gave total luciferase, z-score 0.713; inactive.
For BPNT2 (3'(2'), 5'-bisphosphate nucleotidase 2) #2, the values are total luciferase, z-score -1.23; inactive.
After knock-down of BPNT2 (3'(2'), 5'-bisphosphate nucleotidase 2) #3, the screen gave total luciferase, z-score 0.175; inactive.
Against FEZ1 (fasciculation and elongation protein zeta 1) #1, the values are total luciferase, z-score -0.649; inactive.
Against FEZ1 (fasciculation and elongation protein zeta 1) #2, the entry reads total luciferase, z-score -1.46; inactive.
For FEZ1 (fasciculation and elongation protein zeta 1) #3, the entry reads total luciferase, z-score -0.707; inactive.
After knock-down of GRID1 (glutamate ionotropic receptor delta type subunit 1) #1, the screen gave total luciferase, z-score 0.0425; inactive.
Against GRID1 (glutamate ionotropic receptor delta type subunit 1) #2, the entry reads total luciferase, z-score 0.859; inactive.
Depletion of GRID1 (glutamate ionotropic receptor delta type subunit 1) #3 came out at: total luciferase, z-score -0.334; inactive.
Depletion of GTF2F2 (general transcription factor IIF subunit 2) #1 came out at: total luciferase, z-score 0.276; inactive.
Knock-down of GTF2F2 (general transcription factor IIF subunit 2) #2 resulted in: total luciferase, z-score -0.558; inactive.
Knock-down of GTF2F2 (general transcription factor IIF subunit 2) #3 resulted in: total luciferase, z-score 0.172; inactive.
After knock-down of TXNRD2 (thioredoxin reductase 2) #1, the record shows total luciferase, z-score 0.734; inactive.
TXNRD2 (thioredoxin reductase 2) #2 gave total luciferase, z-score 1.06; inactive.
TXNRD2 (thioredoxin reductase 2) #3 showed total luciferase, z-score -0.0603; inactive.
PVRIG (PVR related immunoglobulin domain containing) #1 scored total luciferase, z-score -0.468; inactive.
Against PVRIG (PVR related immunoglobulin domain containing) #2, the values are total luciferase, z-score 1.48; inactive.
With knock-down of PVRIG (PVR related immunoglobulin domain containing) #3, the record shows total luciferase, z-score 1; inactive.
For NOTCH2 (notch receptor 2) #1, the entry reads total luciferase, z-score -0.341; inactive.
Knock-down of NOTCH2 (notch receptor 2) #2 came out at: total luciferase, z-score 0.568; inactive.
Silencing of NOTCH2 (notch receptor 2) #3 resulted in: total luciferase, z-score 0.61; inactive.
ELOVL5 (ELOVL fatty acid elongase 5) #1 gave total luciferase, z-score -0.528; inactive.
ELOVL5 (ELOVL fatty acid elongase 5) #2 showed total luciferase, z-score 3.12; active.
For ELOVL5 (ELOVL fatty acid elongase 5) #3, the values are total luciferase, z-score -0.349; inactive.
ATP5F1B (ATP synthase F1 subunit beta) #1 scored total luciferase, z-score -0.86; inactive.
Knock-down of ATP5F1B (ATP synthase F1 subunit beta) #2 came out at: total luciferase, z-score -0.955; inactive.
Silencing of ATP5F1B (ATP synthase F1 subunit beta) #3 came out at: total luciferase, z-score -0.983; inactive.
Against VSX1 (visual system homeobox 1) #1, the entry reads total luciferase, z-score -2; inactive.
After knock-down of VSX1 (visual system homeobox 1) #2, the screen gave total luciferase, z-score 0.346; inactive.
Knock-down of VSX1 (visual system homeobox 1) #3 came out at: total luciferase, z-score 0.482; inactive.
